Reference: publication PMC4924727
Results are given in words; binding and its absence hold for the method and conditions named. In cells and extracts the contact can be indirect. Some entries that bind do so weakly or less than the wild type. Where a sequence is shown, tags or fusion partners need not be part of it.

The chains behind the UniProt entries cited, without tags or fusion partners.
UniProt Q99K46: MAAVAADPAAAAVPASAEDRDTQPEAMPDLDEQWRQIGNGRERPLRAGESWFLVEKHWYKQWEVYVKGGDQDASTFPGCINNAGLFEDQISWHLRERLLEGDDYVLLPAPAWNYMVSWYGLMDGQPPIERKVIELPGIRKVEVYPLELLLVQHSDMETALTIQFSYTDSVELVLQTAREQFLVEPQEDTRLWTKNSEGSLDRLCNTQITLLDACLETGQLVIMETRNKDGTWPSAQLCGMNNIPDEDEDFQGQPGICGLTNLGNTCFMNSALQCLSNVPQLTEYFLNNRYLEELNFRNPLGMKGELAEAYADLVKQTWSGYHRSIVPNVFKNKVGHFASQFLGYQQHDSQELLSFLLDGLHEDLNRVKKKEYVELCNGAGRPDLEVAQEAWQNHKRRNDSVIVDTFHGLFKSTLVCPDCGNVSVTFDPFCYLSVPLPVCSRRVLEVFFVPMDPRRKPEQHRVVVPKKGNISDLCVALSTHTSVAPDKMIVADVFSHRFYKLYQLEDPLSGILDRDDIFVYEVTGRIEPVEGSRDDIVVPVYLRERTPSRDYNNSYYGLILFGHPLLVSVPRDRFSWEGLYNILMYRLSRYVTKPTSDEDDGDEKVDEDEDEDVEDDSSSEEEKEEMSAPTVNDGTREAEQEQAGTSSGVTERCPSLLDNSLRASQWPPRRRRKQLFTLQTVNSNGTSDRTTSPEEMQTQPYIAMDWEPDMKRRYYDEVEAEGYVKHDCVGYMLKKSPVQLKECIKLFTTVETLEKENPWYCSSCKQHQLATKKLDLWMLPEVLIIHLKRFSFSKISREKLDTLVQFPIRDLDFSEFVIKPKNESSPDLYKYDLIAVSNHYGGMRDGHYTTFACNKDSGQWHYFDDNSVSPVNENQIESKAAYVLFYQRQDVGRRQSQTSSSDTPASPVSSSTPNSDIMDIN

What was measured:
[1] = molecular target: T1, GST-Mgl-1 fusion protein (mouse) (UniProt Q80Y17); test: pull-down; GST-Mgl-1 or GST immobilised on Glutathione-Sepharose beads, incubated with extract of HEK293T cells transfected with Flag-USP11; buffer A (20 mM Tris-HCl, 1 mM EDTA, 1 mM dithiothreitol, 150 mM NaCl, 1% Triton X-100); blot with anti-USP11; only the target purified
T1 sequence: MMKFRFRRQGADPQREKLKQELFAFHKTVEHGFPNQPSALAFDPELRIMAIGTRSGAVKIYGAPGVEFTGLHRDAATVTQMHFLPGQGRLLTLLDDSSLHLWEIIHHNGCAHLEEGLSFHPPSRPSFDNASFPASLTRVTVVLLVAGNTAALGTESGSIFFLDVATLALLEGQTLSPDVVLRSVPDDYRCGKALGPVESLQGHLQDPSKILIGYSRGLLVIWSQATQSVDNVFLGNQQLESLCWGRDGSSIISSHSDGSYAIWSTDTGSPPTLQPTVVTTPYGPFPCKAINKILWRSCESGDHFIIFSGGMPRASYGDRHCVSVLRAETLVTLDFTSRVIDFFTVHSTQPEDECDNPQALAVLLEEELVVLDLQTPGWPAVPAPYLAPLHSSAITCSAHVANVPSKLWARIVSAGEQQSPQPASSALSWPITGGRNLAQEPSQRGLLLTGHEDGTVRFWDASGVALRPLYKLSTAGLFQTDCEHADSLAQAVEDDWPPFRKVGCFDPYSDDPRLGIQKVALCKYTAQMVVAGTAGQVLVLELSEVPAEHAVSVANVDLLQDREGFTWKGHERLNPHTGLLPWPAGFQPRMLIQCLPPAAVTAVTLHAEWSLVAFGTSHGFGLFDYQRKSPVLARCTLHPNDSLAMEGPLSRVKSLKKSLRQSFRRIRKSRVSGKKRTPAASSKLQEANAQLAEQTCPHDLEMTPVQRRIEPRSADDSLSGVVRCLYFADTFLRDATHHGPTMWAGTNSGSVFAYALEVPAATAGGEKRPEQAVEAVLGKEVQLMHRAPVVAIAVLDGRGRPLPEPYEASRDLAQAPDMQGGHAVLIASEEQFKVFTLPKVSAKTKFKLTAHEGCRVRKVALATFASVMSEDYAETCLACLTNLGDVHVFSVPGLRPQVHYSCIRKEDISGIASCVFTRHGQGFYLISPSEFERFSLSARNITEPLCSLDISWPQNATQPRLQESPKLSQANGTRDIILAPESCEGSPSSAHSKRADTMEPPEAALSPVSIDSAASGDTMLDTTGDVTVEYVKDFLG

[2] = molecular target: T2, Myc-tagged Mgl-1 (full length) (mouse) (UniProt Q80Y17); test: co-IP; Myc-tagged Mgl-1 (or its five deletion fragments) and Flag-tagged USP11 co-transfected into HEK293T cells; lysed after 48 hrs; immunoprecipitation with anti-Myc or anti-Flag antibody, immunoblotting
T2 sequence: T1 sequence

[3] = molecular target: T3, Myc-tagged Mgl-1 fragment 1-565 (mouse) (UniProt Q80Y17); test: as above
T3 sequence: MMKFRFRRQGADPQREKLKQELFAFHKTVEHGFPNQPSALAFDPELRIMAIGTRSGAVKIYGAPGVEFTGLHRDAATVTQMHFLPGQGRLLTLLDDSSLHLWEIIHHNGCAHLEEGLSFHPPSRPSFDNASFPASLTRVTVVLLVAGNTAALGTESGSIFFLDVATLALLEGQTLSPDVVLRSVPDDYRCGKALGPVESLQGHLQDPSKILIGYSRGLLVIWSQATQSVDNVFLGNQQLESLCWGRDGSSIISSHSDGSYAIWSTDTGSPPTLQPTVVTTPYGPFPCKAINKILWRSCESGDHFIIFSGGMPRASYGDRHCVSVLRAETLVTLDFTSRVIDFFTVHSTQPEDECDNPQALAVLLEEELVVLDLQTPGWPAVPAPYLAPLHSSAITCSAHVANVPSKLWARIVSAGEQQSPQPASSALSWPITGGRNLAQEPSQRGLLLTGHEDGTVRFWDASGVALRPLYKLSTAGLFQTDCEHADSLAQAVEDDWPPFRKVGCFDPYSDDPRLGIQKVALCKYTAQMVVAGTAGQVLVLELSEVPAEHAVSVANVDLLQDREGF

[4] = molecular target: T4, Myc-tagged Mgl-1 fragment 608-1034 (mouse) (UniProt Q80Y17); test: as above
T4 sequence: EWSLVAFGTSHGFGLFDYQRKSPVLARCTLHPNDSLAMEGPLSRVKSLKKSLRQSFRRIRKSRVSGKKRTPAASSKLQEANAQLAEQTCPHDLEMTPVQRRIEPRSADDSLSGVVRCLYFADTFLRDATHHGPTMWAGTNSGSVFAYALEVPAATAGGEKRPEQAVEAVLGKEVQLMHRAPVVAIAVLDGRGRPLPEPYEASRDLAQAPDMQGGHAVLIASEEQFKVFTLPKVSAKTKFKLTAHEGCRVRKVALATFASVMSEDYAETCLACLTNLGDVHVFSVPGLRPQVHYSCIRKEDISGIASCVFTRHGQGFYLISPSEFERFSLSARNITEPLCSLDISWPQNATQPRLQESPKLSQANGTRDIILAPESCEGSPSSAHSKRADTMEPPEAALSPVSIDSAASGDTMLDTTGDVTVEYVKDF

[5] = molecular target: T5, Myc-tagged Mgl-1 fragment 1-680 (mouse) (UniProt Q80Y17); test: as above
T5 sequence: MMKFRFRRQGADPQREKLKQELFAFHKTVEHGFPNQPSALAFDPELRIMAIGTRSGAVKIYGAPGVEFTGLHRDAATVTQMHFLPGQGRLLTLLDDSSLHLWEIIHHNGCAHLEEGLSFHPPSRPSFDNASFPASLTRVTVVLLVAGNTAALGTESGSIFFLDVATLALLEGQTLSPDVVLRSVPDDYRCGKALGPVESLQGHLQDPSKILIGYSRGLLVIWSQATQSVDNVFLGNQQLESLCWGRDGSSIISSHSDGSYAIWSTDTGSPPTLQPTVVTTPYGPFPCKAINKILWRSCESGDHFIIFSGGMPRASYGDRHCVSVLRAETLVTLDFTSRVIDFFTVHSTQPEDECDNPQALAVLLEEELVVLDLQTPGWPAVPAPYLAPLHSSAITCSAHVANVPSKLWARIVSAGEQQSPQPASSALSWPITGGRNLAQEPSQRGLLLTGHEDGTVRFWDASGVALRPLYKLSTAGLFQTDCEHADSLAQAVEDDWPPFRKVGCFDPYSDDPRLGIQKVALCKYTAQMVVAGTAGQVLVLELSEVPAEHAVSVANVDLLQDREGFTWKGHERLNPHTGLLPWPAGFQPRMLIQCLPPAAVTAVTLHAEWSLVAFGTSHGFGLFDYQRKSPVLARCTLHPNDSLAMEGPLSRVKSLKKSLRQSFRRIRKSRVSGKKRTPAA

[6] = molecular target: T6, Myc-tagged Mgl-1 fragment 1-934 (mouse) (UniProt Q80Y17); test: as above
T6 sequence: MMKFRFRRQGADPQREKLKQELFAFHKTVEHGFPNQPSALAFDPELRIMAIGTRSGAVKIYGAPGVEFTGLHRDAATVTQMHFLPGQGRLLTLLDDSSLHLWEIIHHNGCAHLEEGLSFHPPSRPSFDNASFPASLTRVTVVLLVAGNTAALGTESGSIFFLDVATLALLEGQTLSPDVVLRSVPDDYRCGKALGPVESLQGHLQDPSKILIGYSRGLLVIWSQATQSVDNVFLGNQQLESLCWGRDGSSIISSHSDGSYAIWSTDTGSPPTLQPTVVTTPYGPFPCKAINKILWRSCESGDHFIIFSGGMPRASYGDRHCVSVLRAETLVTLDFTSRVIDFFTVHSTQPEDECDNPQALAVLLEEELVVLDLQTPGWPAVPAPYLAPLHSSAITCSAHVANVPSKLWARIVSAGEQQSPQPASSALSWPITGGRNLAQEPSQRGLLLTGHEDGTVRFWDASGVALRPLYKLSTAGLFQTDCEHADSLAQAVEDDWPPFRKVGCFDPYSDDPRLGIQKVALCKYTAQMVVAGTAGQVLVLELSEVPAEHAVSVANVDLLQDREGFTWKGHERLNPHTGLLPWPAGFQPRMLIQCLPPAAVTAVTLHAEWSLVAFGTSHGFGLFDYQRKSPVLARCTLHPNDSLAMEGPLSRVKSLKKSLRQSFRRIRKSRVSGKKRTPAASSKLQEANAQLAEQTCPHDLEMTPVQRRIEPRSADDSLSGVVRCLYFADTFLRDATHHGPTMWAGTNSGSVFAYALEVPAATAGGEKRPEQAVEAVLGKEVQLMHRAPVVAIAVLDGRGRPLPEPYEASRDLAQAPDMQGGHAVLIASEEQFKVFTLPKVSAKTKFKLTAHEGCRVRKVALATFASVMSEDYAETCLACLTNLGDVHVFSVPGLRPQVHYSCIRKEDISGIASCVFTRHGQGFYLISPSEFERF

Measured: binding

Flag-tagged USP11 (ubiquitin-specific protease 11) (from UniProt Q99K46 1-921) (enzyme)
binds: all assays above
